# Reference: PMC4900609 (PLoS ONE, 2016)
# Biological target: the molecule itself
# Test: SEC; gel filtration of the purified reagents; elution volumes compared with expected sizes
protein,measurement,value
affibody-dCK fusion protein (anti-Her2 affibody fused to engineered human deoxycytidine kinase) (designed binder) VDNKFNKEMRNAYWEIALLPNLNNQQKRAFIRSLYDDPSQSANLLAEAKKLNDAQAPKMATPPKRSCPSFSASSEGTRIKKISIEGNIAAGKSTFVNILKQLSEDWEVVPEPVARWCNVQSTQDEFEELTMEQKNGGNVLQMMYEKPERWSFTFQTYACLSMIRAQLASLNGKLKDAEKPVLFFERSVYSARYIFASNLYESESMNETEWTIYQDWHDWMNNQFGQSLELDGIIYLQATPETCLHRIYLRGRNEEQGIPLEYLEKLHYKHESWLLHRTLKTNFDYLQEVPILTLDVNEDFKDKYESLVEKVKEFLSTL,stoichiometry N,2
